# Results published in paper PMC6812009, “Covalent Aurora A regulation by the metabolic integrator coenzyme A” (Redox Biology, 2019).
# Results are given in words; binding and its absence hold for the method and conditions named.
# Target: purified Aurora A Cys290Ala (human) (UniProt O14965)
# Test: non-reducing SDS-PAGE; purified Aurora A briefly exposed to peroxide; reducing compared with non-reducing SDS-PAGE; dimer sensitive to DTT; both purified
binder,measurement,value
"purified Aurora A Cys290Ala (enzyme, UniProt O14965 1-403) MDRSKENCISGPVKATAPVGGPKRVLVTQQFPCQNPLPVNSGQAQRVLCPSNSSQRIPLQAQKLVSSHKPVQNQKQKQLQATSVPHPVSRPLNNTQKSKQPLPSAPENNPEEELASKQKNEESKKRQWALEDFEIGRPLGKGKFGNVYLAREKQSKFILALKVLFKAQLEKAGVEHQLRREVEIQSHLRHPNILRLYGYFHDATRVYLILEYAPLGTVYRELQKLSKFDEQRTATYITELANALSYCHSKRVIHRDIKPENLLLGSAGELKIADFGWSVHAPSSRRTTLAGTLDYLPPEMIEGRMHDEKVDLWSLGVLCYEFLVGKPPFEANTYQETYKRISRVEFTFPDFVTEGARDLISRLLKHNPSQRPMLREVLEHPWITANSSKPSNCQNKESASKQS",binding,no binding
